This assay has as its target Amphiregulin (mouse (endogenous in infarcted heart tissue)) (UniProt P31955). Put plainly: co-IP; endogenous proteins, infarcted heart tissue 7 days post-AMI (the legend of Fig. 5F says CMECs); which protein was precipitated is not told.

The chains behind the UniProt entries cited, without tags or fusion partners. Where a name states a change or a piece, a line headed by the entry shows the natural chain unless it says otherwise.
UniProt P31955: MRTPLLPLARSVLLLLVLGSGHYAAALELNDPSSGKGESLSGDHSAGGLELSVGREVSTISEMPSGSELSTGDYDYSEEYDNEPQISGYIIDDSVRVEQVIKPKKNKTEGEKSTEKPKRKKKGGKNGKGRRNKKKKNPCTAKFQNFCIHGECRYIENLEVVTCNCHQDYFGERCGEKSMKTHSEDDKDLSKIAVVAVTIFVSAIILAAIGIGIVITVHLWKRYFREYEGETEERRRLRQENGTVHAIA

The record followed here is paper PMC12153170.

No constants are given. Whether binding was seen depends on the method and setting. In cells and extracts the contact can be indirect. Binding calls can cover weak binding; strength is not graded here.

B1: Forkhead Box Protein M1 (protein, UniProt O08696 1-760)
chain: MRTSPRRPLILKRRRLPLPVQNAPSETSEEEAKRSPAQPEPAPAQASQEVAESSSCKFPAGIKIINHPTTPNTQVVAIPSNADIQSIITALTAKGKESGTSGPNRFILISSGGPSSHPSQPQAHSSRDSKRAEVITETLGPKPAAKGVPVPKPPGAPPRQRQESYAGGEAAGCTLDNSLTNIQWLGKMSSDGLGPCSVKQELEEKENCHLEQNRVKVEEPSGVSTSWQDSVSERPPYSYMAMIQFAINSTERKRMTLKDIYTWIEDHFPYFKHIAKPGWKNSIRHNLSLHDMFVRETSANGKVSFWTIHPSANRHLTLDQVFKPLEPGSPQSPEHLESQQKRPNPELHRNVTIKTEIPLGARRKMKPLLPRVSSYLEPIQFPVNQSLVLQPSVKVPFRLAASLMSSELARHSKRVRIAPKVLLSSEGIAPLPATEPPKEEKPLLGGEGLLPLLPIQSIKEEEMQPEEDIAHLERPIKVESPPLEEWPSPCASLKEELSNSWEDSSCSPTPKPKKSYCGLKSPTRCVSEMLVTKRREKREVSRSRRKQHLQPPCLDEPDLFFPEDSSTFRPAVELLAESSEPAPHLSCPQEEGGPFKTPIKETLPVSSTPSKSVLSRDPESWRLTPPAKVGGLDFSPVRTPQGAFGLLPDSLGLMELNTTPLKSGPLFDSPRELLNSEPFDLASDPFGSPPPPHVEGPKPGSPELQIPSLSANRSLTEGLVLDTMNDSLSKILLDISFPGLEEDPLGPDNINWSQFIPELR
As to B1, the binding entry is “binds”.
